From paper PMC10804810
These are yes or no findings as the source states them, for the method shown. Some results given as binding are weak or reduced against the parent protein; the word gives no strength. Where a sequence is shown, tags or fusion partners need not be part of it.

Biological target: T1, HEMK2 protein methyltransferase (murine, His-tagged) (murine) (UniProt Q6SKR2)
T1 sequence: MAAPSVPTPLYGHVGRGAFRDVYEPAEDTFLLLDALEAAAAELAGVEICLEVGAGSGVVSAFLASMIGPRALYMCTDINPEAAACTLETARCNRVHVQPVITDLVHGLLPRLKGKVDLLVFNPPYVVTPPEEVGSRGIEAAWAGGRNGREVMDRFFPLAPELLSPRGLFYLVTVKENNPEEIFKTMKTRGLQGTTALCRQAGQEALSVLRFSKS
Test: co-purification (Ni-NTA affinity chromatography); His-tagged HEMK2 and untagged TRMT112 co-expressed in E. coli; lysate loaded on Ni-NTA agarose, washed in 30 mM KPI, 500 mM KCl, 20 mM imidazole, eluted with 220 mM imidazole; Coomassie stained SDS gel

B1: TRMT112 (untagged complex partner of HEMK2) (protein, UniProt Q9DCG9 1-125)
chain: MKLLTHNLLSSHVRGVGTRGFPLRLQATEVRINPVEFNPEFVARMIPKVEWAALVQAADTLNLAEVPKEPTEGYEHDETFLRKMHHVLLEVDVLEGTLQCPESGRLFPISRGIPNMLLNDEETET
For B1, the binding was “binds”.
